Reference: PMC6457555
No constants are given. Whether binding was seen depends on the method and setting. Binding seen in cells or lysates may run through a third protein. Here binding means that the protein was enriched with, or labelled near, the bait; the list need not be complete. Where a sequence is shown, tags or fusion partners need not be part of it.

Sequences of proteins named here, by UniProt entry; tags and fusion partners are left off. A change or cut given only in a name is not applied to a line headed by its entry.
UniProt A0QSH7: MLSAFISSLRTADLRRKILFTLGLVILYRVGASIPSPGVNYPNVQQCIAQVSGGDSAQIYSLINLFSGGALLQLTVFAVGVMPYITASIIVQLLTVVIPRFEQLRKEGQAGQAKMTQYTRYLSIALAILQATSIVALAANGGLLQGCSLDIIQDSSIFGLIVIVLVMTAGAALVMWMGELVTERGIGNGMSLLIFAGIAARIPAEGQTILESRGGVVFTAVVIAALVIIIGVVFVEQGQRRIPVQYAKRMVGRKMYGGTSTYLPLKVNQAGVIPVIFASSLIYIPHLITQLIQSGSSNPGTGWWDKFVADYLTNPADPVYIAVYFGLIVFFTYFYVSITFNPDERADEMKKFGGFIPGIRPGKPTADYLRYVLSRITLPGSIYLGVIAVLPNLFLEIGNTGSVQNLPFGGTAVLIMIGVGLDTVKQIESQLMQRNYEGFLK
UniProt A0R199: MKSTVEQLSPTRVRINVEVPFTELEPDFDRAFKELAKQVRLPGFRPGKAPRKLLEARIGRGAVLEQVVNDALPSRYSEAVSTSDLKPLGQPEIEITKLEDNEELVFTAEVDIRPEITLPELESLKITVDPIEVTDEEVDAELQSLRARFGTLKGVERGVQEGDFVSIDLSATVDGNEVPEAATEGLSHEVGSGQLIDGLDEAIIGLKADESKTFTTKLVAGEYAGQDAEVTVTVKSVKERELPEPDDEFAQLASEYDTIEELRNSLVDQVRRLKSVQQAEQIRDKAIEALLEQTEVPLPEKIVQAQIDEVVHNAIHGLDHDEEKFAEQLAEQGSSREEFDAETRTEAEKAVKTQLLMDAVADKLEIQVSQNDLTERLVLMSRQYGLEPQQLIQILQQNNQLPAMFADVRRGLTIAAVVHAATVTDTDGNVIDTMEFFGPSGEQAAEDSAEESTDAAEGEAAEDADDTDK
UniProt A0QZ49: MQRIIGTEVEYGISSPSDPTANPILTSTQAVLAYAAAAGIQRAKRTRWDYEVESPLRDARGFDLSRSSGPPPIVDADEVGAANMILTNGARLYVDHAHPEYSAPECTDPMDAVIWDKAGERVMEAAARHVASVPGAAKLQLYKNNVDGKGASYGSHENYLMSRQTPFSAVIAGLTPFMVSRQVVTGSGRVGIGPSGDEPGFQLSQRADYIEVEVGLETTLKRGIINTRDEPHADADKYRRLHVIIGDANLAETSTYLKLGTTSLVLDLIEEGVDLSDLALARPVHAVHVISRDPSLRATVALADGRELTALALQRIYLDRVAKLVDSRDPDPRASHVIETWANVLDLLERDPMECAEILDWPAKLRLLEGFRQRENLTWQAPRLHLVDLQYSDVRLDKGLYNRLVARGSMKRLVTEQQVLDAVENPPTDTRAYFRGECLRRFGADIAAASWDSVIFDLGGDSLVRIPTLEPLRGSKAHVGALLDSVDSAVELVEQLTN

T1: PepNMsm (aminopeptidase PepN of Mycobacterium smegmatis mc2155, MSMEG_4690) (Mycobacterium smegmatis mc2155 (endogenous in Msm lysate)) (UniProt A0R1B3)
T1 sequence: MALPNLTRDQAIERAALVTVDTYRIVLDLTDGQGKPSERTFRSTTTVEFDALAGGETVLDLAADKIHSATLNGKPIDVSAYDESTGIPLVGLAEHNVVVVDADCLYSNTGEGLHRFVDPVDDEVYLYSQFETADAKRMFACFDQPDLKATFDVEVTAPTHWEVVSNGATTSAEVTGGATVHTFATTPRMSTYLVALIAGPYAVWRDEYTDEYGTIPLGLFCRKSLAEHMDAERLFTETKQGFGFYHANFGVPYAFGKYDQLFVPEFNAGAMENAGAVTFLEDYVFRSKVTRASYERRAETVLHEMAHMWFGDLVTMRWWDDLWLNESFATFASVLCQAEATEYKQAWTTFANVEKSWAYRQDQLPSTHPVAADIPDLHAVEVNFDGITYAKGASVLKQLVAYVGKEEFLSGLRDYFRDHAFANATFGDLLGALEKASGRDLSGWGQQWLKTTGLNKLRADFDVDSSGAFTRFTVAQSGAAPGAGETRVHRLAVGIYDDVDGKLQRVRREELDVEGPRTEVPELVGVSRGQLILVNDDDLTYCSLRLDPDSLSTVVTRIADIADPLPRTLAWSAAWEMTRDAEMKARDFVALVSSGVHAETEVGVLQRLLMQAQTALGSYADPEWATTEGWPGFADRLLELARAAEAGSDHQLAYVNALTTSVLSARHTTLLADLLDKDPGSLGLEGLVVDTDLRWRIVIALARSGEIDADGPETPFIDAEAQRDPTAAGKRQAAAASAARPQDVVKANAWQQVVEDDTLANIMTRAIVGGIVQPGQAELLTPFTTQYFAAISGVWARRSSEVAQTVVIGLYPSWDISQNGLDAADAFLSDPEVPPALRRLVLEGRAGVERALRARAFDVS


Target: T1, PepNMsm (aminopeptidase PepN of Mycobacterium smegmatis mc2155, MSMEG_4690) (Mycobacterium smegmatis mc2155 (endogenous in Msm lysate))
Assay: affinity purification with mass spectrom

| binding | Molecule |
| --- | --- |
| binds | SecY (from UniProt A0QSH7) |
| binds | Tat pathway signal sequence domain protein |
| binds | Trigger factor (from UniProt A0R199 1-469) |

Target: T1, PepNMsm (aminopeptidase PepN of Mycobacterium smegmatis mc2155, MSMEG_4690) (Mycobacterium smegmatis mc2155 (endogenous in Msm lysate))
Assay: affinity purification with mass spectrom
Remark: another data set of the same source

| binding | Molecule |
| --- | --- |
| binds | Ribonuclease E (enzyme, UniProt A0R152 1-1037) MAEDAHTEDLSTQTPQQEGLPERLRVHSLARVLGTTSRRVLDALAEFDGRQRSAHSTVDKADAERVRAALTESPAAETPPEEAPAAETPVADLVVVQAEQVEVVTVSEAGPAEPAEPAEPEAPAAEAEAEAETEVADEAETPEPTFRGAVLVGDEPESRLILEHANIPPARETQTERPDYLPLFVAPQPVSFEPAVVDDEDEDDDTETGAESDFDSGADSDSDDDQADRPRRRRRGRRGRGRGRGEQNDDATSDADTDSTEDQTDGDEQESGEDSDDSGDEDSTTTEGGTRRRRRRRRRKSGSGDSDDAVSPDDPPNTVVHERAPRTERSDKSDDSEIQGISGSTRLEAKRQRRRDGRDAGRRRPPILSEAEFLARREAVERTMIVRDKVRTEPPHEGARYTQIAVLEDGVVVEHFVTSAASASLVGNIYLGIVQNVLPSMEAAFVDIGRGRNGVLYAGEVNWEAAGLGGQNRKIEQALKPGDYVVVQVSKDPVGHKGARLTTQVSLAGRYLVYVPGASSTGISRKLPDTERQRLKEILREVVPSDAGVIIRTASEGVKEEDIRSDVERLQKRWSEIEAKAAEVTEKKAGAAVALYEEPDVLVKVIRDLFNEDFSSLIVSGDEAWNTINSYVEAVAPDLMPRLTKYEPAGPDAPDVFAVHRIDEQLAKAMDRKVWLPSGGTLVIDRTEAMTVVDVNTGKFTGSGGNLEQTVTRNNLEAAEEIVRQLRLRDIGGIVVIDFIDMVLESNRDLVLRRLTEALARDRTRHQVSEVTSLGLVQLTRKRLGTGLVEAFSTACTHCGGRGIVLHGDPIDSASSNGGRKSDSSGGGGSGGGRRGKRGKKGAARTEEVHVAKVPDHTPGEHPMFKAMAAANGKHEGDEDHEDHEDHETAEDTTAAEVRDDTRDEHDADERAHVVTAAVGAAGDEDLDDSDEDSDLDSDEESDDESDEDEIELDDDEDELDEDIEVIGDSDDSDDSDDSDEDDDSDDSDDDSDEDEDSDSDEDEEPVREVYEPPVTAPRARVRRRAAARPAGPPSHD |
| binds | SecA2 (protein, UniProt A0QYG9 1-784) MPKTSSAKPGRLSSKFWKLLGASTERNQARSLSEVKGAADFEKKAADLDDEQLTKAAKLLKLEDLAGASDITQFLAIAREAAERTTGLRPFDVQLLAALRMLAGDVVEMATGEGKTLAGAIAAAGYALGGRRVHVITINDYLARRDAEWMGPLLKALGLTVGWITADSTADERREAYQCDVTYASVNEIGFDVLRDQLVTDVADLVSPNPDVALIDEADSVLVDEALVPLVLAGTSHREQPRVEIIRMVGELEAGKHYDTDAESRNVHLTEAGARVMEAKLGGIDLYSEEHVGTTLTEINVALHAHVLLQRDVHYIVRDDAVHLINASRGRIASLQRWPDGLQAAVEAKEGIETTETGEVLDTITVQALINRYPRVCGMTGTALAAGEQLRQFYKLGVSPIPPNTPNIRKDEPDRVYITAAAKIDAIVEHIAEVHKTGQPVLVGTHDVAESEELHEKLLKAGVPAVVLNAKNDAEEAAVIAEAGKLGAVTVSTQMAGRGTDIRLGGSDVGDDDAEKKKVAELGGLHVVGTGRHHTERLDNQLRGRAGRQGDPGSSVFFSSWEDDVVAAHLERSKLPMETDPDAGDGRIIAPRAASLLDHAQRVAEGRLLDVHANTWRYNQLIAQQRAIIVERRETLLRTDTAREELKERSPERYAKLAEELGEDAEERLEKICRLIMLYHLDRGWCEHLAFLADIRESIHLRALGRQNPLDEFHRMAVDAFASLAADAIEAAQQTFETAESVADEPGVDLSKLARPTSTWTYMVHDNPLADDTMSALSLPGVFR |
| binds | signal peptidase 1 (enzyme, UniProt A0QV43 1-289) MTGSTDSTDASSEDALDHDSAGDSAANPADEPQSRPDPEQDEKPKRKHGALREGAILVTIAVVLYYVMLTFIARPYLIPSESMEPTLHGCNGCVGDRIMVDKLTYRFTEPRPGDVVVFKGPPSWNIGYKSIRSDNPVIRGVQNALSFIGFVPPDENDLVKRVIAVGGQTVECRAATGLTVDGKKLDEPYLDPTTMMADPAIYPCLGNEFGPVTVPEDRIWVMGDNRTHSADSRVHCTNLPADAQKGLLCTGDPTAGTIPVENVIGKARFIAWPPSRWGGISDVNPQTSS |
| binds | DNA polymerase III γ-subunit (enzyme, UniProt A0R5R6 1-665) MALYRKYRPATFSEVVGQEHVTEPLCTALTAGRINHAYLFSGPRGCGKTSSARILARSLNCDQGPTPTPCGVCDSCVALAPNGPGNVDVVELDAASHGGVDDTRELRDRAFYAPAQSRYRIFIVDEAHMVTTAGFNALLKIVEEPPDHLIFVFATTEPEKVLPTIRSRTHHYPFRLLAPRTMRPLLERICAEENVEVDDAVYPLVIRAGGGSPRDTLSVLDQLLAGSEQGANGNHITYQRALSLLGATDLALIDDAVEALAANDAAALFGAVEAVVDAGHDPRRFATDLLERFRDLIVLQAVPDAVTRGVVDAPTDVLERMREQAERLGAGTLTRYAEVVHAGLGEMRGATAPRLLLEVMCARLLLPSAADTESALLQRIERIETRLDMSIPAGEASSGVAPAEPAKQFVRRSQAAAASPPAAEPAPATPPTPAAPPTPAAPPAPAVAAPPAPAPAPQAPRPEPPVARPAPEPPPRPAPEPVAPPPPAAPVPAAAPAAPAPAAETGSVPGQPNAAAVRSMWSTVREKVRQRSRTTEVMLSGAIVRAVEGDTLVLSHESAPLAKRLTESRNSEVIREALKDALGVNWKVRCVTGAPEAAVAAPPAATGGAAPQAPAPDPVEIARAEEDDMLAEAAAEPSESMPRRDPEEVALELLQNELGARRIDG |

Target: T1, PepNMsm (aminopeptidase PepN of Mycobacterium smegmatis mc2155, MSMEG_4690) (Mycobacterium smegmatis mc2155 (endogenous in Msm lysate))
Assay: affinity purification with mass spectrometry; 1 mg wild-type Msm lysate incubated with 100 ug purified anti-PepN antibody for 16 h at 4°C, Protein G magnetic beads 2 h at 4°C, washed in 1X TBST, eluted in 7.5 M urea, Nano-LC Q-Exactive Plus MS; proteins found with beads alone or pre-immune sera subtracted

| binding | Molecule |
| --- | --- |
| binds | Pup deamidase/depupylase (from UniProt A0QZ49 1-498) (enzyme) |
| binds | proteasomal core subunit beta (enzyme) |
